Taken from: PubChem BioAssay AID686938 (Drosophila RNAi Screening Center, 2013)

- Assay: 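Fly genes required for calcium entry once internal stores are emptied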 (primary screen)
- Cell system: Drosophila S2R+ cells
- Knock-down reagent: long dsRNA against Drosophila genes, about 0.25 µg dsRNA per well, roughly 10,000 cells
- Duration: 5 days of knock-down before the calcium assay
- Challenge: thapsigargin (SERCA pump blocker) to empty calcium stores; entry signal taken 4 min after adding it
- Measurement: 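Per-well fluo-4 fluorescence in two replicates, unnormalised, measured in resting cells and 4 min after store depletion by the SERCA blocker thapsigargin; ratio of the two present in few wells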
- Direction: calcium entry signal: higher = stronger calcium signal after store depletion; entry to resting ratio: higher = more calcium entry relative to resting level; resting calcium signal: higher = higher resting calcium signal
- Units: calcium entry signal in fluorescence units; resting calcium signal in fluorescence units
- Rule for the call: 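Called when the plate z-score of the entry-to-rest ratio, mean of duplicates, falls below −3; wells with low overall dye signal (Fmax z below −2) or more than five off-targets excluded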
- Calls: active = strongly reduced calcium entry; inactive = no strong reduction
The deposit covers about 23,000 reagents; shown is a random part of those that have a named target and a result. Of all reagents, 75 (0.33%) got an active call. 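Raw plate signals without normalisation; calls rest on plate z-scores that were not deposited; ratio present for only 364 wells.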 A number with no mark means an inactive call. Reagents against one gene are numbered here. Names joined by + are all predicted targets of the reagent. Reagent sequences are not shown. Not stated in the record: the dose of the treatment.

The first 2 entries, ahead of the listing:
gene | reagent no. | calcium entry signal, replicate 1 | calcium entry signal, replicate 2 | entry to resting ratio | resting calcium signal, replicate 1 | resting calcium signal, replicate 2
yellow-c + CIAPIN1 | 1 | 3.73e7 | 2.25e7 | – | 1.72e7 | 1.11e7
Lip1 (GeneID 43973) | 1 | 2.90e7 | 4.29e7 | – | 1.31e7 | 1.97e7

Main list, from the start:
gene | reagent no. | calcium entry signal, replicate 1 | calcium entry signal, replicate 2 | entry to resting ratio | resting calcium signal, replicate 1 | resting calcium signal, replicate 2
yellow-c + CIAPIN1 | 1 | 3.73e7 | 2.25e7 | – | 1.72e7 | 1.11e7
Lip1 (GeneID 43973) | 1 | 2.90e7 | 4.29e7 | – | 1.31e7 | 1.97e7
wb (GeneID 43946) | 1 | 1.71e7 | 2.50e7 | – | 1.23e7 | 1.40e7
wb (GeneID 43946) | 2 | 5.02e7 | 3.55e7 | – | 2.27e7 | 1.74e7
wb (GeneID 43946) | 3 | 3.41e7 | 3.03e7 | – | 1.70e7 | 1.56e7
CG14384 (GeneID 41588) | 1 | 1.87e7 | 3.79e7 | – | 9.57e6 | 5.41e7
CG5050 (GeneID 35048) | 1 | 4.27e7 | 2.94e7 | – | 1.92e7 | 1.30e7
Tig (GeneID 33896) | 1 | 2.20e7 | 2.01e7 | – | 1.23e7 | 1.03e7
BI-1 (GeneID 38936) | 1 | 3.31e7 | 2.12e7 | – | 2.40e7 | 1.03e7
CG2871 (GeneID 31411) | 1 | 3.06e7 | 5.02e7 | – | 1.49e7 | 2.30e7
CG2871 (GeneID 31411) | 2 | 2.78e7 | 3.01e7 | – | 1.42e7 | 1.38e7
CG12699 (GeneID 36944) | 1 | 2.40e7 | 2.16e7 | – | 1.21e7 | 9.98e6
GlcAT-S (GeneID 34282) | 1 | 4.11e7 | – | – | 1.93e7 | –
CG17819 (GeneID 42579) | 1 | 4.28e7 | 5.25e7 | – | 6.44e7 | 2.40e7
lva (GeneID 31350) | 1 | 5.31e7 | 4.83e7 | – | 2.25e7 | 2.17e7
CG3565 (GeneID 37933) | 1 | 3.78e7 | – | – | 1.87e7 | –
CG2938 (GeneID 31347) | 1 | 3.63e7 | 5.27e7 | – | 1.79e7 | 2.40e7
Gr22b (GeneID 117492) | 1 | 3.90e7 | 2.92e7 | – | 1.75e7 | 1.48e7
retm (GeneID 33899) | 1 | 5.33e7 | – | – | 2.69e7 | –
CG6409 (GeneID 39220) | 1 | 4.33e7 | 3.55e7 | – | 2.97e7 | 1.77e7
CG6409 (GeneID 39220) | 2 | 3.59e7 | 3.80e7 | – | 1.70e7 | 2.00e7
CG7568 (GeneID 43482) | 1 | 3.24e7 | 5.62e7 | – | 1.70e7 | 2.08e7
Phb2 (GeneID 46038) | 1 | 2.27e7 | 1.41e7 | – | 1.31e7 | 7.92e6
NfI (GeneID 43782) | 1 | 5.80e7 | 5.71e7 | 2.2 | 2.65e7 | 2.13e7
